Reference: PubChem BioAssay AID1159584 (Peter MacCallum Cancer Centre, 2016)
In all, the deposit lists about 18,000 reagents; shown is a random part of them. Not all columns of the deposit are shown. Not given: the amount of reagent, the time to read-out.

Aim: 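Genes that CDH1-null MCF10A cells selectively depend on to survive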 (primary screen)
Cells: human MCF10A breast epithelial cells, parental and CDH1-null
Reagent: siRNA against human genes
Detection: 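Cell viability by CellTiter-Glo ATP luminescence, each line scaled to the mean of mock wells across plates, then CDH1-null over parental ratio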
Direction: CDH1-null / parental viability ratio: higher = CDH1-null cells survive relatively better than parental; CDH1-null viability vs mock: higher = more viable CDH1-null cells
Units: CDH1-null viability vs mock in fraction of mock

UBXN11 (GeneID 91544)
- CDH1-null / parental viability ratio: 1.05
- CDH1-null viability vs mock: 0.58

RNF139 (GeneID 11236)
- CDH1-null / parental viability ratio: 1.09
- CDH1-null viability vs mock: 1.02

ATXN7 (GeneID 6314)
- CDH1-null / parental viability ratio: 0.99
- CDH1-null viability vs mock: 0.82

PALB2 (GeneID 79728)
- CDH1-null / parental viability ratio: 1.02
- CDH1-null viability vs mock: 0.5

RTL8B (GeneID 441518)
- CDH1-null / parental viability ratio: 1.3
- CDH1-null viability vs mock: 1

IGSF11 (GeneID 152404)
- CDH1-null / parental viability ratio: 0.71
- CDH1-null viability vs mock: 0.6

CBX3 (GeneID 11335)
- CDH1-null / parental viability ratio: 0.9
- CDH1-null viability vs mock: 0.7

POMT1 (GeneID 10585)
- CDH1-null / parental viability ratio: 1.28
- CDH1-null viability vs mock: 1.11

LOC401052 (retired record) (GeneID 401052)
- CDH1-null / parental viability ratio: 1.04
- CDH1-null viability vs mock: 0.8

KLHL26 (GeneID 55295)
- CDH1-null / parental viability ratio: 0.99
- CDH1-null viability vs mock: 0.73

SLC26A9 (GeneID 115019)
- CDH1-null / parental viability ratio: 0.88
- CDH1-null viability vs mock: 0.77

CSTF1 (GeneID 1477)
- CDH1-null / parental viability ratio: 0.82
- CDH1-null viability vs mock: 0.62

SMC5 (GeneID 23137)
- CDH1-null / parental viability ratio: 0.84
- CDH1-null viability vs mock: 0.36

PRAMEF4 (GeneID 400735)
- CDH1-null / parental viability ratio: 1.01
- CDH1-null viability vs mock: 0.73

POFUT1 (GeneID 23509)
- CDH1-null / parental viability ratio: 0.92
- CDH1-null viability vs mock: 0.9

FZR1 (GeneID 51343)
- CDH1-null / parental viability ratio: 1.38
- CDH1-null viability vs mock: 0.94

RWDD2A (GeneID 112611)
- CDH1-null / parental viability ratio: 1.97
- CDH1-null viability vs mock: 0.63

SLC6A18 (GeneID 348932)
- CDH1-null / parental viability ratio: 1.05
- CDH1-null viability vs mock: 0.66

NEB (GeneID 4703)
- CDH1-null / parental viability ratio: 1.08
- CDH1-null viability vs mock: 0.97

SPATA21 (GeneID 374955)
- CDH1-null / parental viability ratio: 0.87
- CDH1-null viability vs mock: 0.67

RPS15A (GeneID 6210)
- CDH1-null / parental viability ratio: 2.64
- CDH1-null viability vs mock: 0.74

The list goes on (3 carried over from the part before).
NEB (GeneID 4703)
- CDH1-null / parental viability ratio: 1.08
- CDH1-null viability vs mock: 0.97

SPATA21 (GeneID 374955)
- CDH1-null / parental viability ratio: 0.87
- CDH1-null viability vs mock: 0.67

RPS15A (GeneID 6210)
- CDH1-null / parental viability ratio: 2.64
- CDH1-null viability vs mock: 0.74

ITPKB (GeneID 3707)
- CDH1-null / parental viability ratio: 0.57
- CDH1-null viability vs mock: 0.55

LHFPL4 (GeneID 375323)
- CDH1-null / parental viability ratio: 1.06
- CDH1-null viability vs mock: 1.03

MED11 (GeneID 400569)
- CDH1-null / parental viability ratio: 1
- CDH1-null viability vs mock: 0.7

LINC00336 (GeneID 401253)
- CDH1-null / parental viability ratio: 0.81
- CDH1-null viability vs mock: 0.71

UAP1L1 (GeneID 91373)
- CDH1-null / parental viability ratio: 1.05
- CDH1-null viability vs mock: 0.92

LAIR1 (GeneID 3903)
- CDH1-null / parental viability ratio: 1.19
- CDH1-null viability vs mock: 0.88

DLGAP2 (GeneID 9228)
- CDH1-null / parental viability ratio: 0.95
- CDH1-null viability vs mock: 0.84

SMN1 (GeneID 6606)
- CDH1-null / parental viability ratio: 0.96
- CDH1-null viability vs mock: 0.7

ADH5 (GeneID 128)
- CDH1-null / parental viability ratio: 0.7
- CDH1-null viability vs mock: 0.6

ABR (GeneID 29)
- CDH1-null / parental viability ratio: 1.22
- CDH1-null viability vs mock: 0.98

KPNB1 (GeneID 3837)
- CDH1-null / parental viability ratio: 0.7
- CDH1-null viability vs mock: 0.28

ME1 (GeneID 4199)
- CDH1-null / parental viability ratio: 1.08
- CDH1-null viability vs mock: 0.94

OPRK1 (GeneID 4986)
- CDH1-null / parental viability ratio: 1.65
- CDH1-null viability vs mock: 0.66

TMEM154 (GeneID 201799)
- CDH1-null / parental viability ratio: 1.08
- CDH1-null viability vs mock: 0.8
